The record followed here is the supplement of paper PMC10849652.

By UniProt entry, the sequences of proteins in these tests, tags left out. Where a name states a change or a piece, a line headed by the entry shows the natural chain unless it says otherwise.
UniProt Q9NQG7: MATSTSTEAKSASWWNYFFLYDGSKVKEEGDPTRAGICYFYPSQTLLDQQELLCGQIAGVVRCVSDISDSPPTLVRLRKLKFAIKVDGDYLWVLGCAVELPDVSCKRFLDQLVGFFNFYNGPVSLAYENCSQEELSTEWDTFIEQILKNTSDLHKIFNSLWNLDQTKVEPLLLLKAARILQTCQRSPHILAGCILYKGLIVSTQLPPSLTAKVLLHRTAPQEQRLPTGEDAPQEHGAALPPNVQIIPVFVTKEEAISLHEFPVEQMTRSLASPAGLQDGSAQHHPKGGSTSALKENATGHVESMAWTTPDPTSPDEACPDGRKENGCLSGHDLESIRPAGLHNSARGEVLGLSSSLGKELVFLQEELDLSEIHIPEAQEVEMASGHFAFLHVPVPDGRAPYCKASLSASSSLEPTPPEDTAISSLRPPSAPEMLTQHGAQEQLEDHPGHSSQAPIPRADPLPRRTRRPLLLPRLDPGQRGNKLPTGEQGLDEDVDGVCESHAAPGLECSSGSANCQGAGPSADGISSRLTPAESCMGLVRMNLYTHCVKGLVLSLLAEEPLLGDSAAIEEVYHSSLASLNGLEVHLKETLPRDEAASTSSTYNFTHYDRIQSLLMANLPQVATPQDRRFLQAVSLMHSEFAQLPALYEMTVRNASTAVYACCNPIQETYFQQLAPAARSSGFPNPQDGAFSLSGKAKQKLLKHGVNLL
UniProt P28356, whole entry, looked up: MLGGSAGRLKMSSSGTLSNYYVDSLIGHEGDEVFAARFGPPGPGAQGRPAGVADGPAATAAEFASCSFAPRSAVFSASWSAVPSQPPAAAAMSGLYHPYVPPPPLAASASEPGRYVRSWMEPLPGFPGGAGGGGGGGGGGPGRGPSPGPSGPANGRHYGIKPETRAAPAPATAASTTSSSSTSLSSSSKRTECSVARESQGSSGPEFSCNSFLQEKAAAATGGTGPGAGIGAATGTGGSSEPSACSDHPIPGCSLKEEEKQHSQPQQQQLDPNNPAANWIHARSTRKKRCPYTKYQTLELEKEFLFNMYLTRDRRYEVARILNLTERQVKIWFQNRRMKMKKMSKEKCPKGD
UniProt Q96EW2: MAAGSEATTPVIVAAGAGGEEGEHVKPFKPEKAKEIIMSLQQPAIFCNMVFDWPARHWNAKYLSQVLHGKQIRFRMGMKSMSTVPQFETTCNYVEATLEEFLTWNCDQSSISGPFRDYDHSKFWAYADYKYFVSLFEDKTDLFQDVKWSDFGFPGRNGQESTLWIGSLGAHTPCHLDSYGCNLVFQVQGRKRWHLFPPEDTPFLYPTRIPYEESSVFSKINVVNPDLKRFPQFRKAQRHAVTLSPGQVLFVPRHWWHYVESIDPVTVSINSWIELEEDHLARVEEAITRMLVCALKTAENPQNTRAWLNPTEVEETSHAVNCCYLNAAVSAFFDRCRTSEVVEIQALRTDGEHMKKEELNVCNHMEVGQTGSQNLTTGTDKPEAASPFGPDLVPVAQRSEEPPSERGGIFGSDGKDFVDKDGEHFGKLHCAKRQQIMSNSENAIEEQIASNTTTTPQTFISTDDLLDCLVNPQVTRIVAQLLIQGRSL
UniProt P41134: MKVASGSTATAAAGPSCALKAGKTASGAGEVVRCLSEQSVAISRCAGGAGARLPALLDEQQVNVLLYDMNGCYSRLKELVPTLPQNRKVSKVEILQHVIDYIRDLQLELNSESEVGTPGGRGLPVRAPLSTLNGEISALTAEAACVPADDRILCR
UniProt P30939: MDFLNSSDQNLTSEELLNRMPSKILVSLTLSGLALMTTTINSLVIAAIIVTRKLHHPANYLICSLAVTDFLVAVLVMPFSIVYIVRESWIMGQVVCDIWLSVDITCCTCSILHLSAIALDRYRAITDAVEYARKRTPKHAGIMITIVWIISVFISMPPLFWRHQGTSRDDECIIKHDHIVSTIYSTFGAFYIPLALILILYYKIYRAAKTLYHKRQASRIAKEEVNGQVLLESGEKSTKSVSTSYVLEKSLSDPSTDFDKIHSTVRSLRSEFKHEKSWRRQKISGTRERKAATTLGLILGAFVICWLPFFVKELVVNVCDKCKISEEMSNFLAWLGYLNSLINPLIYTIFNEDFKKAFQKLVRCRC
UniProt Q9P2D0: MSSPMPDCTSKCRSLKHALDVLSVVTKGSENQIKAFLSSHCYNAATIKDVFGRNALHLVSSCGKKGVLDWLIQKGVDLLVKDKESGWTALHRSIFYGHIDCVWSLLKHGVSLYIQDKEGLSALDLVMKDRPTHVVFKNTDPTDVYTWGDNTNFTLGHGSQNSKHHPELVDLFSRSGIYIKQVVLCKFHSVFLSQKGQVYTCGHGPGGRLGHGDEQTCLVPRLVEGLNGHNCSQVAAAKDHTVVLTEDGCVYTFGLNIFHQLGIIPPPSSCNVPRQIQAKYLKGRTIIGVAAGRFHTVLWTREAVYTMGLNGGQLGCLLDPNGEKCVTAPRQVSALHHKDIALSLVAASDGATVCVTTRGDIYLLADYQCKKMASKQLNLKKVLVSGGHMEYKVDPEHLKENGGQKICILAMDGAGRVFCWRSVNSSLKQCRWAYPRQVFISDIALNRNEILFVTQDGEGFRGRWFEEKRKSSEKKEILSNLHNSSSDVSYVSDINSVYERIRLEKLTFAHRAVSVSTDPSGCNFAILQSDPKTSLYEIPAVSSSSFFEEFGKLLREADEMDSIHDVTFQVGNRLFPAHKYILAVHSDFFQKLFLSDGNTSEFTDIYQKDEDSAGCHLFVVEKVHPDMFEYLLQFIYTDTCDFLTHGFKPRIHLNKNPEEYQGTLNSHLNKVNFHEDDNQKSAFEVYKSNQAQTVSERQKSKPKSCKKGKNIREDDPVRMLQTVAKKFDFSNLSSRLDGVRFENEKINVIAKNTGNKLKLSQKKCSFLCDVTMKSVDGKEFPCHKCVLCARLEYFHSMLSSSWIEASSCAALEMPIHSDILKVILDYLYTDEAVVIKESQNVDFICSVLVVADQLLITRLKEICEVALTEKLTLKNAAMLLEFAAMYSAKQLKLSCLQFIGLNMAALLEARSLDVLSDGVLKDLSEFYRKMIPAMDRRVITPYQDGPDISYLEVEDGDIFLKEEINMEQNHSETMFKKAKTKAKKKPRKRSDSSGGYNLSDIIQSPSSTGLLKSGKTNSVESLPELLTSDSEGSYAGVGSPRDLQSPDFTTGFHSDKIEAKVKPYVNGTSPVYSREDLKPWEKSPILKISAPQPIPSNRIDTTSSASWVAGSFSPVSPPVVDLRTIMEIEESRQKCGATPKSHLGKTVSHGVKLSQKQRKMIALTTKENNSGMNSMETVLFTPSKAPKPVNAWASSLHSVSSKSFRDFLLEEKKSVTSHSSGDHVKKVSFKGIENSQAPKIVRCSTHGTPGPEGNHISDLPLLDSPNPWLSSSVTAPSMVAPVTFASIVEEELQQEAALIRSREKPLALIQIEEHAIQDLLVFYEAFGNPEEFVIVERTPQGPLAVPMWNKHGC
UniProt Q9UJC3, whole entry, looked up: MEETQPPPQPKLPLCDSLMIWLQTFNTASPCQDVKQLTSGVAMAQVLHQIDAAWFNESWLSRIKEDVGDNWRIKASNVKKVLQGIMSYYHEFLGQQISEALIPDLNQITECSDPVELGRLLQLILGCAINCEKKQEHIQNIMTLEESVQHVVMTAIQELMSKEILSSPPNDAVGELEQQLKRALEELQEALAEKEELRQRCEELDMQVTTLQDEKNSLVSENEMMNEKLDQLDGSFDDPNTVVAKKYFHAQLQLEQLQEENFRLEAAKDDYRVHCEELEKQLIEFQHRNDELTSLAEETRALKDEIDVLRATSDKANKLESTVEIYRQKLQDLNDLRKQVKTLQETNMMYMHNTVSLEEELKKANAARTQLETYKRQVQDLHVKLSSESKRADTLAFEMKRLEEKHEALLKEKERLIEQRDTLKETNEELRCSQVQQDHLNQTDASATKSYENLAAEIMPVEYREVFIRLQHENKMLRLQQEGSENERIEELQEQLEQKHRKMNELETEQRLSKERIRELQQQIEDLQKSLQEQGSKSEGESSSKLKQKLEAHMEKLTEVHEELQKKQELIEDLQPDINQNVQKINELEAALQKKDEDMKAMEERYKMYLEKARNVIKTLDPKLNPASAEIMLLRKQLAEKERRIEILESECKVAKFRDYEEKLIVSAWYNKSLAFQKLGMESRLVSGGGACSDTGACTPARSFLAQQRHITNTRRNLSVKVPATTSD
UniProt Q8TCT9: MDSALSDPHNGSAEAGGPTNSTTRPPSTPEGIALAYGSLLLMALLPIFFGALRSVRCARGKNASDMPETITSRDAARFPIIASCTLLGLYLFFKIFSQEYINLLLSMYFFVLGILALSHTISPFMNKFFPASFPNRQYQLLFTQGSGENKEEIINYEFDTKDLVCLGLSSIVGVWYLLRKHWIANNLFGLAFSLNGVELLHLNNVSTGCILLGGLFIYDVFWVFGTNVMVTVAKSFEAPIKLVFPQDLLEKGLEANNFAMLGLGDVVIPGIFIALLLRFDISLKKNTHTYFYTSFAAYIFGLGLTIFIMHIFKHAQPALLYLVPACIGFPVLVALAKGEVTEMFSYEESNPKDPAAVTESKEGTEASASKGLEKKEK
UniProt H0YH80: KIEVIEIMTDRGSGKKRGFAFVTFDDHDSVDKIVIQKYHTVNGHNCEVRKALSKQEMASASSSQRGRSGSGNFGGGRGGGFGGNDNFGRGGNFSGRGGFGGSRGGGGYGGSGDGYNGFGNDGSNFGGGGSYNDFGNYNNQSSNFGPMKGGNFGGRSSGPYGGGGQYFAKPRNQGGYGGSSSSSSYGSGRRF
UniProt P13747, whole entry, looked up: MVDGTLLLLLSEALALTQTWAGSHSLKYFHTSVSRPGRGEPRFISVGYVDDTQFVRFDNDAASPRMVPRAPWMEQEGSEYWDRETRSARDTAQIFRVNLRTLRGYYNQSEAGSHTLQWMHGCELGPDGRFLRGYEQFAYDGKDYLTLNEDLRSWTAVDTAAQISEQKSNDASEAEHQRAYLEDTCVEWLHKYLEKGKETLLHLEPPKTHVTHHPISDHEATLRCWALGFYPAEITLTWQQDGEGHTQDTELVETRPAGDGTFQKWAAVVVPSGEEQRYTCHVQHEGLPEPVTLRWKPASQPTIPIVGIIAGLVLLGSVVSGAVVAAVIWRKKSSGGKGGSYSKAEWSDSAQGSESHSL
UniProt Q9NSB8: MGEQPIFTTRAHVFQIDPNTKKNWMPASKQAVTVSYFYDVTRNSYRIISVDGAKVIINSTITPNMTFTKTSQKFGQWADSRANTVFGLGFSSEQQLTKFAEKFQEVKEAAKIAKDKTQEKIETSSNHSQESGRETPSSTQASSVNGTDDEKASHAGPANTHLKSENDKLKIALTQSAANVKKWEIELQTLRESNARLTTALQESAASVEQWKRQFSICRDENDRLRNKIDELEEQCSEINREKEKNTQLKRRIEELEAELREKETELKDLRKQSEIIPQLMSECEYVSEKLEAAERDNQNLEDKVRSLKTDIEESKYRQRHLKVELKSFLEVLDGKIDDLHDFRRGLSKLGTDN
UniProt Q9P0W2: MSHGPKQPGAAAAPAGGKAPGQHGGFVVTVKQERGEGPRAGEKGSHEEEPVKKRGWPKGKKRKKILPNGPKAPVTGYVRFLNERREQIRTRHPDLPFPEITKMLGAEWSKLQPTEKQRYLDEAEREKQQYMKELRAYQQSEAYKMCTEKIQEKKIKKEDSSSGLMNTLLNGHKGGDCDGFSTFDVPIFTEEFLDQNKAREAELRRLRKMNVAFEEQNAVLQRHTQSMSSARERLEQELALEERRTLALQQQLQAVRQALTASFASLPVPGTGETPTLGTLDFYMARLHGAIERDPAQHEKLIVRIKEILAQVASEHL
UniProt Q00839, whole entry, looked up: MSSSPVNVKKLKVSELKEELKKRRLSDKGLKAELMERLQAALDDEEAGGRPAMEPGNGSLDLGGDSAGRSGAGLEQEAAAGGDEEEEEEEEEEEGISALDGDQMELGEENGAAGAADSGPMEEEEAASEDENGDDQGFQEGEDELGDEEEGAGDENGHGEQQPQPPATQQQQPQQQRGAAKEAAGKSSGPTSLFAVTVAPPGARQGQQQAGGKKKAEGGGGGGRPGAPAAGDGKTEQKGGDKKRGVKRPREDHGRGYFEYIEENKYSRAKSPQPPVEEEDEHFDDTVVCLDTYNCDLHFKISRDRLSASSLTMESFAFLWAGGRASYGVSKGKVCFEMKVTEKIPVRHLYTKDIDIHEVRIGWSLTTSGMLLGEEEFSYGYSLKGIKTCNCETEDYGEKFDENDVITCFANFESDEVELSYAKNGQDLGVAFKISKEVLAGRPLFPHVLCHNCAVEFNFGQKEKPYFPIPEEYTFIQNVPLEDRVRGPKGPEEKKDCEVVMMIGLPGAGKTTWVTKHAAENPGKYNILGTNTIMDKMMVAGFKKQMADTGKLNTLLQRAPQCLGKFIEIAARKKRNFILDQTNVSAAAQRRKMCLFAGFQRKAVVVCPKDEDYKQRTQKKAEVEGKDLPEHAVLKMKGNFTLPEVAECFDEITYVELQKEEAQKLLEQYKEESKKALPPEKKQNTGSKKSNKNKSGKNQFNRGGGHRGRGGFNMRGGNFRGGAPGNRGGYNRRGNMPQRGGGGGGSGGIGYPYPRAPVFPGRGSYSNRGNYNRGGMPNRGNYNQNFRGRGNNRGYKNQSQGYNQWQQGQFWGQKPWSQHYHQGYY

The other results are listed elsewhere or left out.

Compound in one assay: C1=CC(=CC=C1C2=NC3=C(N2)C=C(C=C3)C(=O)N)OC4=CC=C(C=C4)Cl
Description: log2 fold change, soluble protein after heating vs DMSO (PISA); higher = thermal stabilisation; K562 cells, 10 uM, 30 min; active = over 0.2 and 3.5 SD of the protein, either way, in both replicates (recomputed). The procedure, abridged: (§1)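 Aliquots of K562 cells (2×10^6 cells/mL) treated with 10 μM compound for 30 min were heated for 3 min over 48°C-58°C. After pooling and extraction in PBS with 0.5% NP-40 at 4°C, soluble protein from a 21,000xg, 90 min spin was quantified by TMTpro 16plex LC-MS/MS with channel sums equalised. Thermal stability is expressed against control samples, from duplicates, as a log2 fold change.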
Consider HPS4 isoform 4 (UniProt Q9NQG7), for which the log2 fold change is inactive: -0.014.
On the same count and under the same terms, the same measure for HOXD9 (UniProt P28356): inactive: -0.075; for HUWE1, A0A087X1S3: inactive: 0.33; for HNRNPUL1 (UniProt M0R247): inactive: -0.513.
On the same count and under the same terms, the same measure for HSPBAP1 (UniProt Q96EW2): inactive: 0.06; for HIGD2A (UniProt Q9BW72): inactive: -0.081.
Same read-out and setting: the same measure for HNRNPD (UniProt D6RF44): inactive: -0.076; for ICOSLG isoform 2 (UniProt O75144): inactive: -0.052; for HOMER3 (UniProt Q9NSC5): inactive: 0.044.
In the case of HUWE1 isoform 2 (UniProt Q7Z6Z7), the log2 fold change is inactive: -0.042.
On to ID1 (UniProt P41134), for which the log2 fold change is inactive: 0.038.
On the same count and under the same terms, to HNRNPK isoform 3 (UniProt P61978) belongs inactive: -0.032.
In the case of HNMT (UniProt P50135), the log2 fold change was inactive: 0.031.
In the case of HTR1F (UniProt P30939), the log2 fold change was inactive: 0.012.

Compound in another assay: C1=CC2=C(C=CC(=C2)/C=C\3/C(=O)NC(=NCC4=CC=CS4)S3)N=C1
The assay is described as above. The method in brief:
as §1
Turning to IBTK (UniProt Q9P2D0), the log2 fold change is inactive: -0.064.
The same measure, in the same setting: to HOXD9 (UniProt P28356) belongs inactive: -0.036; to HOOK1 (UniProt Q9UJC3), inactive: 0.093.
As to HNRNPUL1 (UniProt M0R247), the log2 fold change was inactive: 0.545.
Same read-out and setting: the same measure for HSPBAP1 (UniProt Q96EW2): inactive: 0.06.
Still for that read-out and setting: the same measure for HM13 (UniProt Q8TCT9): inactive: 0.053; for HUWE1 isoform 2 (UniProt Q7Z6Z7): inactive: -0.217; for HNRNPA1 (UniProt H0YH80): inactive: -0.333.
Consider HLA-E (UniProt P13747), for which the log2 fold change was inactive: -0.141.
With HOMER2 (UniProt Q9NSB8), the log2 fold change is inactive: 0.309.
Same read-out and setting: the same measure for HTR1F (UniProt P30939): inactive: 0.058.

Compound in a further assay: C1=CC2=NC=CN=C2C=C1/C=C/3\C(=O)NC(=O)S3
The description is as above. The method in brief: as §1
Regarding IBTK (UniProt Q9P2D0), the log2 fold change was inactive: -0.091.
For HMG20B (UniProt Q9P0W2), the log2 fold change is inactive: -0.005.
The same measure, in the same setting: to HSBP1 (UniProt O75506) belongs inactive: 0.397; to HIGD1A isoform 2 (UniProt Q9Y241), inactive: 0.142.
The same measure, in the same setting: to HUWE1, A0A087X1S3 belongs inactive: 0.088.
Same read-out and setting: the same measure for ICE1 (UniProt Q9Y2F5): inactive: 0.001.
HNRNPR (UniProt O43390): the log2 fold change is inactive: 0.127.
Consider ICOSLG isoform 2 (UniProt O75144), for which the log2 fold change was inactive: -0.044.
In the case of HMBS (UniProt F5H226), the log2 fold change was inactive: 0.041.
Regarding HM13 (UniProt Q8TCT9), the log2 fold change was inactive: 0.105.
Same read-out and setting: to HNRNPA1 (UniProt H0YH80) belongs inactive: 0.064; to ID1 (UniProt P41134), inactive: 0.071; to HLA-E (UniProt P13747), inactive: 0.075.
The same measure, in the same setting: to HNRNPK isoform 3 (UniProt P61978) belongs inactive: 0.06.

Compound in another assay: C1=CC=C(C=C1)C2=NC(=C(N2)C3=CC=NC=C3)C4=CC(=C(C=C4)Cl)O
The assay is described as above. The method in brief:
as §1
With IBTK (UniProt Q9P2D0), the log2 fold change was inactive: -0.061.
The same measure, in the same setting: to HPS4 isoform 4 (UniProt Q9NQG7) belongs inactive: -0.133; to HIGD1A isoform 2 (UniProt Q9Y241), inactive: -0.061.
The same measure, in the same setting: the same measure for HM13 (UniProt Q8TCT9): inactive: -0.041; for HNRNPA1 (UniProt H0YH80): inactive: 0.141.
On the same count and under the same terms, to ID1 (UniProt P41134) belongs inactive: 0.045; to HNRNPK isoform 3 (UniProt P61978), inactive: -0.024.

Compound in the next assay: C1=CC=C2C(=C1)C3=NNC4=CC=CC(=C43)C2=O
Described as above. The procedure, abridged:
as §1
In the case of IBTK (UniProt Q9P2D0), the log2 fold change is inactive: 0.006.
Regarding HOXD9 (UniProt P28356), the log2 fold change was inactive: -0.162.
Same read-out and setting: to HOOK1 (UniProt Q9UJC3) belongs inactive: -0.134.
Same read-out and setting: to HNRNPUL1 (UniProt M0R247) belongs inactive: -0.419.
The same measure, in the same setting: to HSPBAP1 (UniProt Q96EW2) belongs inactive: 0.092.
HM13 (UniProt Q8TCT9): the log2 fold change is inactive: -0.031.
The same measure, in the same setting: to HUWE1 isoform 2 (UniProt Q7Z6Z7) belongs inactive: 0.104; to HNRNPA1 (UniProt H0YH80), inactive: 0.147.
On the same count and under the same terms, the same measure for HLA-E (UniProt P13747): inactive: -0.016.
The same measure, in the same setting: the same measure for HOMER2 (UniProt Q9NSB8): inactive: 0; for HTR1F (UniProt P30939): inactive: 0.021.

Compound in a further assay: C1CCN(C1)C(=O)NC2=CC=CC(=C2)NC3=NC=C(C(=N3)NCCC4=CN=CN4)Br
The description is as above. The procedure, abridged: as §1
Regarding IBTK (UniProt Q9P2D0), the log2 fold change was inactive: -0.098.
HPS4 isoform 4 (UniProt Q9NQG7): the log2 fold change was inactive: 0.081.
Still for that read-out and setting: to HOOK2 (UniProt Q96ED9) belongs inactive: -0.103; to HUWE1, A0A087X1S3, inactive: 0.059.
Take HNRNPUL1 (UniProt M0R247): the log2 fold change is inactive: 0.471.
Consider HNRNPU isoform 2 (UniProt Q00839), for which the log2 fold change is inactive: -0.114.
Take HMBS (UniProt F5H226): the log2 fold change was inactive: 0.032.
With HM13 (UniProt Q8TCT9), the log2 fold change is inactive: 0.146.
On the same count and under the same terms, the same measure for HSP90AA2P (UniProt Q14568): inactive: 0.044; for HNRNPA1 (UniProt H0YH80): inactive: -0.058; for ID1 (UniProt P41134): inactive: -0.089.
The same measure, in the same setting: to HLA-E (UniProt P13747) belongs inactive: -0.179; to HNRNPK isoform 3 (UniProt P61978), inactive: -0.027; to HOMER2 (UniProt Q9NSB8), inactive: -0.089.
